Some results were stated once for a whole list of compounds, not compound by compound.
tested on: PD-1/PD-L1; assay: PD-1/PD-L1 blockade bioassay at the cellular level (PD-L1 aAPC/CHO-K1 cells + PD-1 Effector T cells, luciferase); assay type: cell-based, human; settings: summary of Table 5
Protocol: In order to evaluate the effect of the compounds of the present invention, synthesized according to the above Preparation Examples, on blocking signal transduction between PD-1/PD-L1-expressing cells, a PD-1/PD-L1 blockade bioassay was conducted as described below.
Specifically, PD-L1 aAPC/CHO-K1 cells engineered to express human PD-L1 were seeded into a 96-well white plate and cultured for one day. On the following day, the compounds were prepared in a 96-well plate by serial dilution at concentrations starting from 10 µM and 5 µM, followed by 1/4 dilutions to obtain a total of ten concentrations. The culture medium in the plate seeded with the PD-L1 aAPC/CHO-K1 cell line was removed, and 40 µL of each prepared compound solution was added to a 96-well plate. Thereafter, 40 µL of PD-1 Effector T cell line engineered to express human PD-1 was additionally added, and then cultured for 6 hours. After 6 hours, 80 µL of Bio-Glo luciferase buffer was added to each well, followed by incubation at room temperature for 10 minutes, and luminescence was measured using a microplate reader.

| SMILES | inhibition of the interaction between PD-1/PD-L1 molecules at the cellular level (in words) |
| --- | --- |
| Cc1c(NC(=O)c2ccc(CN3CC[C@@H](O)C3)cn2)cccc1-c1cccc(NC(=O)c2cc3n(n2)CCC[C@H]3N2CC[C@@H](O)C2)c1C [Compound 217] | effectively inhibit the interaction between PD-1/PD-L1 molecules at the nanomolar level |
| O=C1CC[C@@H](CN[C@@H]2CCCn3nc(C(=O)Nc4cccc(-c5cccc(NC(=O)c6ccc(CNCCO)cn6)c5Cl)c4Cl)cc32)N1 [Compound 225, (R)-N-(2,2'-dichloro-3'-(5-(((2-hydroxyethyl)amino)methyl)picolinamido)-[1,1'-biphenyl]-3-yl)-4-((((S)-5-oxopyrrolidin-2-yl)methyl)amino)-4,5,6,7-tetrahydropyrazolo[1,5-a]pyridine-2-carboxamide] | effectively inhibit the interaction between PD-1/PD-L1 molecules at the nanomolar level |
| Cc1c(NC(=O)c2ccc(CN3CC[C@@H](O)C3)cn2)cccc1-c1cccc(NC(=O)c2cc3n(n2)CCC[C@H]3NCCO)c1C [Compound 215, (R)-4-((2-hydroxyethyl)amino)-N-(3'-(5-(((R)-3-hydroxypyrrolidin-1-yl)methyl)picolinamido)-2,2'-dimethyl-[1,1'-biphenyl]-3-yl)-4,5,6,7-tetrahydropyrazolo[1,5-a]pyridine-2-carboxamide] | effectively inhibit the interaction between PD-1/PD-L1 molecules at the nanomolar level |
| O=C1CC[C@@H](CN[C@H]2CCCn3nc(C(=O)Nc4cccc(-c5cccc(NC(=O)c6ccc(CNCCO)cn6)c5Cl)c4Cl)cc32)N1 [Compound 224, (S)-N-(2,2'-dichloro-3'-(5-(((2-hydroxyethyl)amino)methyl)picolinamido)-[1,1'-biphenyl]-3-yl)-4-((((S)-5-oxopyrrolidin-2-yl)methyl)amino)-4,5,6,7-tetrahydropyrazolo[1,5-a]pyridine-2-carboxamide] | effectively inhibit the interaction between PD-1/PD-L1 molecules at the nanomolar level |
| O=C(Nc1cccc(-c2cccc(Nc3nccc4cc(CN5CC[C@H](O)C5)cnc34)c2Cl)c1Cl)c1cc2n(n1)CCC[C@@H]2N1CCC(C(=O)O)CC1 [Compound 226, 1-((S)-2-((2,2'-dichloro-3'-((3-(((S)-3-hydroxypyrrolidin-1-yl)methyl)-1,7-naphthyridin-8-yl)amino)-[1,1'-biphenyl]-3-yl)carbamoyl)-4,5,6,7-tetrahydropyrazolo[1,5-a]pyridin-4-yl)piperidine-4-carboxylic acid] | effectively inhibit the interaction between PD-1/PD-L1 molecules at the nanomolar level |
| Cc1c(NC(=O)c2ccc(CN3CC[C@@H](O)C3)cn2)cccc1-c1cccc(NC(=O)c2cc3n(n2)CCC[C@@H]3NCCO)c1C [Compound 214, (S)-4-((2-hydroxyethyl)amino)-N-(3'-(5-(((R)-3-hydroxypyrrolidin-1-yl)methyl)picolinamido)-2,2'-dimethyl-[1,1'-biphenyl]-3-yl)-4,5,6,7-tetrahydropyrazolo[1,5-a]pyridine-2-carboxamide] | effectively inhibit the interaction between PD-1/PD-L1 molecules at the nanomolar level |
| O=C(Nc1cccc(-c2cccc(NC(=O)c3cc4n(n3)CCC[C@H]4N3CC[C@@H](C(=O)O)C3)c2Cl)c1Cl)c1ccc(CNCCO)cn1 [Compound 209, (R)-1-((R)-2-((2,2'-dichloro-3'-(5-(((2-hydroxyethyl)amino)methyl)picolinamido)-[1,1'-biphenyl]-3-yl)carbamoyl)-4,5,6,7-tetrahydropyrazolo[1,5-a]pyridin-4-yl)pyrrolidine-3-carboxylic acid] | effectively inhibit the interaction between PD-1/PD-L1 molecules at the nanomolar level |
| O=C(O)CN[C@H]1CCCn2nc(C(=O)Nc3cccc(-c4cccc(Nc5nccc6cc(CN7CC[C@@H](O)C7)cnc56)c4Cl)c3Cl)cc21 [Compound 218, 2-(((S)-2-((2,2'-dichloro-3'-((3-(((R)-3-hydroxypyrrolidin-1-yl)methyl)-1,7-naphthyridin-8-yl)amino)-[1,1'-biphenyl]-3-yl)carbamoyl)-4,5,6,7-tetrahydropyrazolo[1,5-a]pyridin-4-yl)amino)acetic acid] | effectively inhibit the interaction between PD-1/PD-L1 molecules at the nanomolar level |
| O=C(Nc1cccc(-c2cccc(Nc3nccc4cc(CN5CC[C@H](O)C5)cnc34)c2Cl)c1Cl)c1cc2n(n1)CCC[C@H]2N1CCC(C(=O)O)CC1 [Compound 227, 1-((R)-2-((2,2'-dichloro-3'-((3-(((S)-3-hydroxypyrrolidin-1-yl)methyl)-1,7-naphthyridin-8-yl)amino)-[1,1'-biphenyl]-3-yl)carbamoyl)-4,5,6,7-tetrahydropyrazolo[1,5-a]pyridin-4-yl)piperidine-4-carboxylic acid] | effectively inhibit the interaction between PD-1/PD-L1 molecules at the nanomolar level |
| O=C(Nc1cccc(-c2cccc(NC(=O)c3cc4n(n3)CCC[C@@H]4NCCO)c2Cl)c1Cl)c1ccc(CNCCO)cn1 [Compound 206, (S)-N-(2,2'-dichloro-3'-(5-(((2-hydroxyethyl)amino)methyl)picolinamido)-[1,1'-biphenyl]-3-yl)-4-((2-hydroxyethyl)amino)-4,5,6,7-tetrahydropyrazolo[1,5-a]pyridine-2-carboxamide] | effectively inhibit the interaction between PD-1/PD-L1 molecules at the nanomolar level |
| Cc1c(NC(=O)c2ccc(CN3CC[C@@H](O)C3)cn2)cccc1-c1cccc(NC(=O)c2cc3n(n2)CCC[C@@H]3N2CC[C@@H](O)C2)c1C [Compound 216, (S)-4-((R)-3-hydroxypyrrolidin-1-yl)-N-(3'-(5-(((R)-3-hydroxypyrrolidin-1-yl)methyl)picolinamido)-2,2'-dimethyl-[1,1'-biphenyl]-3-yl)-4,5,6,7-tetrahydropyrazolo[1,5-a]pyridine-2-carboxamide] | effectively inhibit the interaction between PD-1/PD-L1 molecules at the nanomolar level |
| O=C(O)CN[C@H]1CCCn2nc(C(=O)Nc3cccc(-c4cccc(NC(=O)c5ccc(CN6CC[C@@H](O)C6)cn5)c4Cl)c3Cl)cc21 [Compound 222, 2-(((S)-2-((2,2'-dichloro-3'-(5-(((R)-3-hydroxypyrrolidin-1-yl)methyl)picolinamido)-[1,1'-biphenyl]-3-yl)carbamoyl)-4,5,6,7-tetrahydropyrazolo[1,5-a]pyridin-4-yl)amino)acetic acid] | effectively inhibit the interaction between PD-1/PD-L1 molecules at the nanomolar level |
| O=C(Nc1cccc(-c2cccc(NC(=O)c3cc4n(n3)CCC[C@@H]4N3CC[C@@H](C(=O)O)C3)c2Cl)c1Cl)c1ccc(CNCCO)cn1 [Compound 208, (R)-1-((S)-2-((2,2'-dichloro-3'-(5-(((2-hydroxyethyl)amino)methyl)picolinamido)-[1,1'-biphenyl]-3-yl)carbamoyl)-4,5,6,7-tetrahydropyrazolo[1,5-a]pyridin-4-yl)pyrrolidine-3-carboxylic acid] | effectively inhibit the interaction between PD-1/PD-L1 molecules at the nanomolar level |

From patent EP4755888A1 (ILAb Co., Ltd., priority 2023, dated 2025)
